Laboratory results taken from paper PMC12536259.
Results are given in words; binding and its absence hold for the method and conditions named. In cells and extracts the contact can be indirect. Some entries that bind do so weakly or less than the wild type. Tags and fused reporters may be left off the sequences shown. One block for each binder: values may come before it.

Key:
Ace2-12PK (S. pombe) = target: T1, Ace2-12PK (S. pombe) (UniProt O14258); test: co-IP; reciprocal: anti-PK or anti-DDDDK (FLAG) antibody on Dyna-G beads, S. pombe crude lysate, overnight at 4°C; IP buffer 50 mM HEPES 7.6, 75 mM KCl, 0.1% NP-40, 20% glycerol, 1 mM EDTA; six washes; detection by immunoblot
T1 sequence: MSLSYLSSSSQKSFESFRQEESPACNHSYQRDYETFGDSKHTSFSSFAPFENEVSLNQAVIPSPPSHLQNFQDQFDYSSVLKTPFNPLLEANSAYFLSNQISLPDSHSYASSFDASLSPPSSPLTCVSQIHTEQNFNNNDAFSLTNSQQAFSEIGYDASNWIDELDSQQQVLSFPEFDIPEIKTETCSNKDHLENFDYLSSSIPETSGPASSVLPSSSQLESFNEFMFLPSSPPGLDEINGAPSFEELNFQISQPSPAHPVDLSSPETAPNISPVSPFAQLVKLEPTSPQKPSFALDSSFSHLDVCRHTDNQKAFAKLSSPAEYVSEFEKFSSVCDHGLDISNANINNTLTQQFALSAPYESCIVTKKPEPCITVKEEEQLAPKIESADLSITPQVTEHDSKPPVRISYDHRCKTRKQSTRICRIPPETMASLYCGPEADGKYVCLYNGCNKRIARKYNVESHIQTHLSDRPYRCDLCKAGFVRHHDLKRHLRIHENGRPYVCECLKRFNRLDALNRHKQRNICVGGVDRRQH

Med8-5FLAG (S. pombe) = target: T2, Med8-5FLAG (S. pombe) (UniProt O94646); test: as above
T2 sequence: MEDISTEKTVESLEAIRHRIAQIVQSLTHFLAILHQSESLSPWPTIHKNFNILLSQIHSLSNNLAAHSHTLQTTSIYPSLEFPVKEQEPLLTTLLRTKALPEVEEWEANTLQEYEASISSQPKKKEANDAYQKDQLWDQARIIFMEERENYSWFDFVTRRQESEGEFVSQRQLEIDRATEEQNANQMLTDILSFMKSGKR

- binding (Ace2-12PK (S. pombe)): binds
B1: Med8-5FLAG (protein, UniProt O94646 1-200)
chain: T2 sequence

- binding (Med8-5FLAG (S. pombe)): binds
B2: Ace2-12PK (protein, UniProt O14258 1-533)
chain: T1 sequence
